In paper doi:10.1101/2022.06.16.496509 one finds binding data, which are given here for two molecules.

In assay [1] the target is T1, fatty acid-binding protein 7 (endogenous mouse FABP7) (mouse (endogenous in cerebellum)) (UniProt P51880).
T1 sequence: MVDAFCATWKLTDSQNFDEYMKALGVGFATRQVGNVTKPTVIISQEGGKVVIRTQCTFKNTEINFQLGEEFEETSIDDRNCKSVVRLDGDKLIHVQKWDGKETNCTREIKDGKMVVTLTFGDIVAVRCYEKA
Description: co-IP.

The target in assay [2] is His-hFABP7 (human fatty acid-binding protein 7 with an N-terminal 6X His-tag) (human), O15540. As to conditions: remark: other sources report otherwise.

These are yes or no findings as the source states them, for the method shown. For some assays here: In cells and extracts the contact can be indirect. Some binding calls cover weakened binding; strength is not graded here. For some assays here: Tags and fused reporters may be left off the sequences shown.

B1: epsin-2 (protein, UniProt Q8CHU3 1-595)
chain: MTTSSIRRQMKNIVNNYSEAEIKVREATSNDPWGPSSSLMTEIADLTYNVVAFSEIMSMVWKRLNDHGKNWRHVYKALTLLDYLIKTGSERVAQQCRENIFAIQTLKDFQYIDRDGKDQGINVREKSKQLVALLKDEERLKVERVQALKTKERMAQVATGVGSNQITFGRGSSQPNLSTSYSEQEYGKAGGSPASYHGSTSPRVSSELEQARPQTSGEEELQLQLALAMSREVAEQSSESVQTARGSKEERLRRGDDLRLQMALEESRRDTVKVPKKKEAKACCKPGSHSQQTTLLDLMDALPSSGPVTQKTEPWSAGASANQTNPWGGTVAPSNITDPWPSFGTKPAASVDPWGVPTTASTQSVPKNSDPWAASQQPASNAGKTTDAWGAAKPSSASGSFELFSNFNGTVKDDFSEFDNLRTSKKPAESGASVPPQDSRTTSPDLFESQSLTSASSKPSSARKTPESFLGPNAALVNLDSLVTKPAPPAQSLNPFLAPGAAAPAPVNPFQVNQPQPLTLNQLRGSPVLGSSASFGSGPGVETVAPMTSVAPHSSVGASGSSLTPLGPTAMNMVGSVGIPPSAAQSTGTTNPFLL
B1: the binding result in assay [1] was “binds”.

B2: His-hFABP7 (human fatty acid-binding protein 7 with an N-terminal 6X His-tag), O15540 1-132 (protein)
chain: MVEAFCATWKLTNSQNFDEYMKALGVGFATRQVGNVTKPTVIISQEGDKVVIRTLSTFKNTEISFQLGEEFDETTADDRNCKSVVSLDGDKLVHIQKWDGKETNFVREIKDGKMVMTLTFGDVVAVRHYEKA
For the molecule B2, the binding entry in assay [2] is on record as “no binding (tested: 0.2 mg / ml)”.
